This is an account of results in patent US20180282430A1 (Bayer, published 2018).

Chains of the proteins cited; added tags and fusions are not shown. Residues count along the entry.
UniProt P10646, residues 29-304: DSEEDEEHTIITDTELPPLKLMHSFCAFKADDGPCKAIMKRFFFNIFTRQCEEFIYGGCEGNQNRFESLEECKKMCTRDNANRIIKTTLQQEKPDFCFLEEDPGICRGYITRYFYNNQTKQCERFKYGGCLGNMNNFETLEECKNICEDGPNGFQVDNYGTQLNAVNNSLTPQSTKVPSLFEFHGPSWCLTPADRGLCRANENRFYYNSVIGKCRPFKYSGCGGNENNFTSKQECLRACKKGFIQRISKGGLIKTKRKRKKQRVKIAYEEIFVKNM

The target of this test is Human TFPI (tissue factor pathway inhibitor) (human) (UniProt P10646). Kind of test: SPR (Biacore T200): human TFPI amine-coupled on a CM4 or CM5 chip, Fab variant injected, dissociation followed in pH 7.4 or pH 6.0 buffer. (In general: Surface plasmon resonance follows binding to a sensor surface in real time, without labels.)

Where a chain is given by its changes, count along the chain named. Results are given in words; binding and its absence hold for the method and conditions named. Some binding calls cover weakened binding; strength is not graded here.

B1: 2A8-g200 Fab VL-L27H (Fab, V domains shown)
VH: EVQLVESGGGLVQPGGSLRLSCAASGFTFSSYGMDWVRQAPGKGLEWVSSIRGSRGSTYYADSVKGRFTISRDNSKNTLYLQMNSLRAEDTAVYYCARLYRYWFDYWGQGTLVTVSS
VL: SYELTQPPSVSVSPGQTARITCSGDNHPKYYAHWYQQKPGQAPVVVIFYDVNRPSGIPERFSGSNSGNTATLTISGTQAMDEADYYCQAWWSSTPVFGGGTKLTVLG
notes: Member of the 2A8-g200 Fab histidine scanning library
Regarding B1, the binding result is “binds”.

B2: 2A8-g200 Fab VL-Y31H (Fab, V domains shown)
VH: B1 VH
VL: B1 VL with H27L, Y31H
notes: as for B1
On to B2, for which the binding result is “binds”.
